# Measurements: the supplement of paper PMC12819154, “High-throughput peptide-centric local stability assay extends protein–ligand identification to membrane proteins, tissues and bacteria” (Nature Structural & Molecular Biology, 2025)
# Sequences of proteins named here, by UniProt entry; tags and fusion partners are left off. A change or cut given only in a name is not applied to a line headed by its entry.
# UniProt Q93015: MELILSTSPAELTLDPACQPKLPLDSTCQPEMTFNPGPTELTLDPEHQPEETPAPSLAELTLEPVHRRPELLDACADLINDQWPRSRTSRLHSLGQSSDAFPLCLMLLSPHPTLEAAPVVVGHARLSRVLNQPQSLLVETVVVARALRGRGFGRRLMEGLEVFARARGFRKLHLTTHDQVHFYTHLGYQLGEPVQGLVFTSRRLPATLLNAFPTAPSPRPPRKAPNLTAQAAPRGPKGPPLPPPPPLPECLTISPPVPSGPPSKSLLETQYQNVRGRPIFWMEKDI
# UniProt Q92784, whole entry: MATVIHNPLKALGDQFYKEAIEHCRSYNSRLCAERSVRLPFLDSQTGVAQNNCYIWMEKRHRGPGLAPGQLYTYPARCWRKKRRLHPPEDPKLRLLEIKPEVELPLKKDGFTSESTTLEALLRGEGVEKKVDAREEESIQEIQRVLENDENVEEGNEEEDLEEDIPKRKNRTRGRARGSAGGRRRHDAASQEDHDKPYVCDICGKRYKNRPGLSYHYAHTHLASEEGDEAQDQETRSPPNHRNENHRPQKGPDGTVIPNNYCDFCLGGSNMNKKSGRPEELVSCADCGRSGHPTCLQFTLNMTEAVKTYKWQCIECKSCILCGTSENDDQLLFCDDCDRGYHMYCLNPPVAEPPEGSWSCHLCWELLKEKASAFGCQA
# UniProt Q92769, whole entry: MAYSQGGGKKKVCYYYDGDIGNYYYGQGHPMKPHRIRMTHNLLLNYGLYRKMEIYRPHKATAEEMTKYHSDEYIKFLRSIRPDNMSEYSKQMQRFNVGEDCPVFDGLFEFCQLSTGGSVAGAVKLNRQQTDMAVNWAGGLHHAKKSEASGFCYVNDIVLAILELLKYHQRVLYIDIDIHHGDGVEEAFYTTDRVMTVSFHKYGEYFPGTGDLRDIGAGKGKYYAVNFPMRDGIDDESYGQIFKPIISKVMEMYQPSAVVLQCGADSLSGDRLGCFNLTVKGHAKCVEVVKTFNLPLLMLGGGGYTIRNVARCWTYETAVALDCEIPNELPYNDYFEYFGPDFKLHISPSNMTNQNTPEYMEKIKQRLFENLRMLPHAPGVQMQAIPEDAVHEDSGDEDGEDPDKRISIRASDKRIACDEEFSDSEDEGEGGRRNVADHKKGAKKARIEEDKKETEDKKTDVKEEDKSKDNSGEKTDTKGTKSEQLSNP
# UniProt Q96BK5: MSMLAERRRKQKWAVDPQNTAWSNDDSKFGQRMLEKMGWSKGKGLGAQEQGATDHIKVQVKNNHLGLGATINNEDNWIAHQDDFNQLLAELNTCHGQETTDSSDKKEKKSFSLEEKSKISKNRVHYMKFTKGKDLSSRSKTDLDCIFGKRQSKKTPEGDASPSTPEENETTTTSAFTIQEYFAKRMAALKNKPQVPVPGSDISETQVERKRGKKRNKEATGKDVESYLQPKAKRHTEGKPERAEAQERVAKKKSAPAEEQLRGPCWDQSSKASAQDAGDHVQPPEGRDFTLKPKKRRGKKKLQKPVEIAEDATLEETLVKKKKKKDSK
# UniProt Q96BN2: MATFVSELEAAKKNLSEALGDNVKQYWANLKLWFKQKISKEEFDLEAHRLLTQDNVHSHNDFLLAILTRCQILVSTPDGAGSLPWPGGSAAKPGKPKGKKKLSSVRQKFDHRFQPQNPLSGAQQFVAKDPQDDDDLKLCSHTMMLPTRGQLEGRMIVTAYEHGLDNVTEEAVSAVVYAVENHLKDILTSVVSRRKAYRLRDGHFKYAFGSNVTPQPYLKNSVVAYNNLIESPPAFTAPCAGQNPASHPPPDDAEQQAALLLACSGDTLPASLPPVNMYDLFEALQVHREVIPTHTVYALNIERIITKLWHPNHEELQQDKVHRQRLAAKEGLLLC
# UniProt Q96BS2: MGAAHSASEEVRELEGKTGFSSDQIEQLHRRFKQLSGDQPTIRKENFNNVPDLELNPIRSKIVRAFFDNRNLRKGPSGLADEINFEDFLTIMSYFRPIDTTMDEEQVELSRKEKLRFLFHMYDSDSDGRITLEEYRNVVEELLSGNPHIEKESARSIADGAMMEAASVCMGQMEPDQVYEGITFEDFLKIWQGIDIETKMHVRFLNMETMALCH
# UniProt Q96A49: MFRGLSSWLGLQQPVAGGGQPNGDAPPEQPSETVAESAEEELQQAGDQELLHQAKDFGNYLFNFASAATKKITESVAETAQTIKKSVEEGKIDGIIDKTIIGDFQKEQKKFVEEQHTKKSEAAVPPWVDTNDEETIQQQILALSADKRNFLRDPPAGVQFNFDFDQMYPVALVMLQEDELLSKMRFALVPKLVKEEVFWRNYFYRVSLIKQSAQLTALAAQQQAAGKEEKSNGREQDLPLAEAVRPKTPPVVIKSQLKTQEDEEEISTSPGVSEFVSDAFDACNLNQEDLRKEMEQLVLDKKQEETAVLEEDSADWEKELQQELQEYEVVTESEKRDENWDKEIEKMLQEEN
# UniProt Q96DC7: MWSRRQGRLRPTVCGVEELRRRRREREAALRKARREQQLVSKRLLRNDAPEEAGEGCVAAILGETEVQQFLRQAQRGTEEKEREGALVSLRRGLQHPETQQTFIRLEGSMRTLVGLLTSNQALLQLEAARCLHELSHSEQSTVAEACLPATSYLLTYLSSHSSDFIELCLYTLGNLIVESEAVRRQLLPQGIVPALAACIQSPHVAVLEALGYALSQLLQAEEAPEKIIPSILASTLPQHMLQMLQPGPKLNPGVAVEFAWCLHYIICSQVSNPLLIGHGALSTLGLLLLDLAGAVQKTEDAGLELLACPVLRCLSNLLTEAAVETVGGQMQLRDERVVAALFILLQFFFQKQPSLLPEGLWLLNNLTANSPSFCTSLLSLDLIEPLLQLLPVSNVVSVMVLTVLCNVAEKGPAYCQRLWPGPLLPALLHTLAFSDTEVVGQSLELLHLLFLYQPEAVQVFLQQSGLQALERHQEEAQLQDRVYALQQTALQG
# UniProt Q969L4: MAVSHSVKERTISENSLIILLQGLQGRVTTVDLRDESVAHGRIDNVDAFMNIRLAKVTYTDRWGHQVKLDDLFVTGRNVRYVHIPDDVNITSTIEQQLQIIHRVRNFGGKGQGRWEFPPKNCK
# UniProt Q92686, whole entry: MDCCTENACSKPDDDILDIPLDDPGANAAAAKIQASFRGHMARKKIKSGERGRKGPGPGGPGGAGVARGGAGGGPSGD
# UniProt Q969U6: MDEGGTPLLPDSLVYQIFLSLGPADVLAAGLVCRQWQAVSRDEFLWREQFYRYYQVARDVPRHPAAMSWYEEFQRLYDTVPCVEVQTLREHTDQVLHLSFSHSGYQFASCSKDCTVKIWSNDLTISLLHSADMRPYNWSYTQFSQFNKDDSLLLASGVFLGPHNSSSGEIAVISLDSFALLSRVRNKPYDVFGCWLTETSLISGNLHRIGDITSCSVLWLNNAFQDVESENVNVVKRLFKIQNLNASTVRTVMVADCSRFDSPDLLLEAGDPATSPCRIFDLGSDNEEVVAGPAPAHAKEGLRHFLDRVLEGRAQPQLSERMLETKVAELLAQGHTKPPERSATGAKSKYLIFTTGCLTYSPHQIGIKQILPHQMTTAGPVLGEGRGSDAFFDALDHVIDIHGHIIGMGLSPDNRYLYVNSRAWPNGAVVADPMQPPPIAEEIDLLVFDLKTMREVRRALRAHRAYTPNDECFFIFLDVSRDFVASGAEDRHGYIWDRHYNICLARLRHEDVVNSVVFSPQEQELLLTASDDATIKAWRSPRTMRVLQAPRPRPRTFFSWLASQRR
# UniProt Q96EB6: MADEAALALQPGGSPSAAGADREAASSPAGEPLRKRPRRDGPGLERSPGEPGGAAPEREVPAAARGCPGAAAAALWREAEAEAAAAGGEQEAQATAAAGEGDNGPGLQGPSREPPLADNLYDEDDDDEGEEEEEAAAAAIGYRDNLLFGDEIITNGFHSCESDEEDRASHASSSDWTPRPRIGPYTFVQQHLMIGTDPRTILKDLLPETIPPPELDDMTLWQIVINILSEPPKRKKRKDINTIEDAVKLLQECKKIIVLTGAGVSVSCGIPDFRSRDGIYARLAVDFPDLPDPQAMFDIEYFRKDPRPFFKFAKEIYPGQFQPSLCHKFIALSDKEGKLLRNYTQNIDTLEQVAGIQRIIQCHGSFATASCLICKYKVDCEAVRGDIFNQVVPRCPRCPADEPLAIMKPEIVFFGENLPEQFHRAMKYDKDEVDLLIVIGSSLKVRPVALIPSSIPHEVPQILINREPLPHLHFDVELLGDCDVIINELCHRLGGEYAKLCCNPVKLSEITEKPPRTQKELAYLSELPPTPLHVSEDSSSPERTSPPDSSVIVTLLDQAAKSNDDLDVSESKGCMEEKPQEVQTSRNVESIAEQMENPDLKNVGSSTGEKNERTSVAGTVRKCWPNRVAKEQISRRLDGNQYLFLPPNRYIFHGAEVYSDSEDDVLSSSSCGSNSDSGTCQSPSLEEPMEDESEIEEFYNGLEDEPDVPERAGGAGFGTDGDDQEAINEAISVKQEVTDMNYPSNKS
# UniProt Q96EK5: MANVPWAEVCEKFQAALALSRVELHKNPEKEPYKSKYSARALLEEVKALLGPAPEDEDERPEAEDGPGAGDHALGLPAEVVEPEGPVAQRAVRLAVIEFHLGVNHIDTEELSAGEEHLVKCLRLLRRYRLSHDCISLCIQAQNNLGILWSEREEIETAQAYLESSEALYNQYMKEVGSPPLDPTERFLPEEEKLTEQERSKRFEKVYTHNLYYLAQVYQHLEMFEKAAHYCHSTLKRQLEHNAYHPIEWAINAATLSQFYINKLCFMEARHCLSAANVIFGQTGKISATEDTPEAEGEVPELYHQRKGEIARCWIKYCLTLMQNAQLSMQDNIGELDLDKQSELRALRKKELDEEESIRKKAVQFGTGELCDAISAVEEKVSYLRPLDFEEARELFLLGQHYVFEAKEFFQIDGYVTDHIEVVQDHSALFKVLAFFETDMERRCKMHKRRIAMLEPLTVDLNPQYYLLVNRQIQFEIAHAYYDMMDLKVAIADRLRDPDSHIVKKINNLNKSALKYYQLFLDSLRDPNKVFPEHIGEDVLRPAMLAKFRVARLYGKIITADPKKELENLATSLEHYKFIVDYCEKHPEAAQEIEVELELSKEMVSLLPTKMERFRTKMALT
# UniProt Q96E29: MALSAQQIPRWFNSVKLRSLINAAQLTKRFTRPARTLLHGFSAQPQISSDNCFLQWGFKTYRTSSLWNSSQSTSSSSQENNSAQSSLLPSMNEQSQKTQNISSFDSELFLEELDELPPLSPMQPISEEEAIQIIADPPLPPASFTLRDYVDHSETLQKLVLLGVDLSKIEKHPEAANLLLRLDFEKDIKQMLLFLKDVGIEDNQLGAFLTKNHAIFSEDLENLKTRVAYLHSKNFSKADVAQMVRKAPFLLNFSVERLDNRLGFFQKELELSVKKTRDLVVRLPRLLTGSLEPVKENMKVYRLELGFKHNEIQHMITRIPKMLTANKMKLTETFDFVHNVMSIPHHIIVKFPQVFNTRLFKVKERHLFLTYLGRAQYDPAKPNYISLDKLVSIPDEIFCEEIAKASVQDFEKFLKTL
# UniProt Q969F9: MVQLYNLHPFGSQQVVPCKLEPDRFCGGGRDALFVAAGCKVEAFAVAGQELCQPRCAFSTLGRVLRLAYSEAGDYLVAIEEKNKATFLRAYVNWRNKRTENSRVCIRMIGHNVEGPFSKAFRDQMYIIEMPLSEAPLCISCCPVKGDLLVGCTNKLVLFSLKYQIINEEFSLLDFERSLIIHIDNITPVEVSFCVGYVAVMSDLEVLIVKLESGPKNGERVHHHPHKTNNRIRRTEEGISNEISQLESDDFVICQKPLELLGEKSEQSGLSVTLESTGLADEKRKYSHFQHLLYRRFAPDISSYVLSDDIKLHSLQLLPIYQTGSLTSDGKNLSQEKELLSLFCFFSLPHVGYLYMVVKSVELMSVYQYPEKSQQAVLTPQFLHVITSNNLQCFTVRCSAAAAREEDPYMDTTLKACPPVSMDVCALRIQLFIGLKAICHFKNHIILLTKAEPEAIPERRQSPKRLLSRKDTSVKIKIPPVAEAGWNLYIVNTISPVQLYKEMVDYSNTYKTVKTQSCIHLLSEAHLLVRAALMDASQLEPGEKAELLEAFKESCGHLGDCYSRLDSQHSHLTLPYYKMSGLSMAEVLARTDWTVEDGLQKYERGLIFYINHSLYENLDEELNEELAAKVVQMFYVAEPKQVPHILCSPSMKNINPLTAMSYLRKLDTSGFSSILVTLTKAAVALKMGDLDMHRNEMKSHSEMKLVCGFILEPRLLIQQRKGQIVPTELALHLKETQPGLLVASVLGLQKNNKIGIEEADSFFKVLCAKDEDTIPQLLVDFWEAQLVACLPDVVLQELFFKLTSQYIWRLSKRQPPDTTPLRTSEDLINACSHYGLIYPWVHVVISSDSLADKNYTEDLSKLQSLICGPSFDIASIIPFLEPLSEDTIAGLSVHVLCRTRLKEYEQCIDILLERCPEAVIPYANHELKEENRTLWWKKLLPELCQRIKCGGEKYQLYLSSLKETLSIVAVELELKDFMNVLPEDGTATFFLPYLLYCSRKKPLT
# The list shows a part of the results. Most entries show no effect beyond the scatter of the controls.
# Compound: Cc1nc(Nc2ncc(C(=O)Nc3c(C)cccc3Cl)s2)cc(N2CCN(CCO)CC2)n1 [dasatinib]
# Experiment: log2 fold change of tryptic peptide abundance, ligand vs vehicle (limited proteolysis) (log2 ratio); higher = more trypsin-susceptible (destabilized)
# Conditions: ligand concentration: 5 uM; sample: K562 cleared lysate
row,Target,log2 fold change
1,"WBP2 (peptide sequence: KGTVYLTPYR, peptide start residue: 47) (UniProt Q969T9)",-0.286
2,"RPUSD4 (peptide sequence: EQDTKKEPVSTNAVQR, peptide start residue: 56) (UniProt Q96CM3)",-0.162
3,"CLUAP1 (peptide sequence: QLASEITSK, peptide start residue: 142) (UniProt Q96AJ1)",-0.292
4,"PHF21A (peptide sequence: VVEQLRK, peptide start residue: 54) (UniProt Q96BD5)",-0.279
5,"UniProt Q93015 (peptide sequence: LMEGLEVFAR, peptide start residue: 156)",0.153
6,"PPWD1 (peptide sequence: DVITHVVCTK, peptide start residue: 91) (UniProt Q96BP3)",-0.454
7,"SLC10A4 (peptide sequence: KLKEEEMADTSYGTVK, peptide start residue: 408) (UniProt Q96EP9)",0.124
8,"DPF3 (peptide sequence: EEESIQEIQR, peptide start residue: 135) (UniProt Q92784)",0.117
9,"HDAC2 (peptide sequence: ARIEEDKK, peptide start residue: 445) (UniProt Q92769)",-0.122
10,"GCDH (peptide sequence: QKYLPQLAK, peptide start residue: 162) (UniProt Q92947)",0.759
11,"UniProt Q96BV0 (peptide sequence: THSRPATHSCPECER, peptide start residue: 184)",0.55
12,"MTMR8 (peptide sequence: THSVWPFLVQR, peptide start residue: 456) (UniProt Q96EF0)",-0.732
13,"ZBTB10 (peptide sequence: GGGGGGLGNNGSSR, peptide start residue: 127) (UniProt Q96DT7)",0.555
14,"PINX1 (peptide sequence: KLQKPVEIAEDATLEETLVK, peptide start residue: 301) (UniProt Q96BK5)",-0.631
15,"DNAJA3 (peptide sequence: GGPTVDPEELFR, peptide start residue: 176) (UniProt Q96EY1)",-0.126
16,"NRBF2 (peptide sequence: KAAAYLSEAMK, peptide start residue: 36) (UniProt Q96F24)",0.283
17,"UniProt Q96ES7 (peptide sequence: IAGLYNDSEPPRK, peptide start residue: 100)",0.247
18,"ISL2 (peptide sequence: VSPDLEWHAACLK, peptide start residue: 42) (UniProt Q96A47)",0.415
19,"ATG4C (peptide sequence: YSDDHEMR, peptide start residue: 185) (UniProt Q96DT6)",-0.536

# Fetched one by one from the list above:
row,Target,log2 fold change
7,"SLC10A4 (peptide sequence: KLKEEEMADTSYGTVK, peptide start residue: 408) (UniProt Q96EP9)",0.124
12,"MTMR8 (peptide sequence: THSVWPFLVQR, peptide start residue: 456) (UniProt Q96EF0)",-0.732

# Continuation:

row,Target,log2 fold change
1,"UniProt Q96BN2 (peptide sequence: LLTQDNVHSHNDFLLAILTR, peptide start residue: 50)",-0.745
2,"DLG3 (peptide sequence: TGMIESNR, peptide start residue: 584) (UniProt Q92796)",0.118
3,"OSBP2 (peptide sequence: GRWDEANTEK, peptide start residue: 832) (UniProt Q969R2)",-0.448
4,"S100PBP (peptide sequence: SLVVSTSSNK, peptide start residue: 268) (UniProt Q96BU1)",0.311
5,"TESC (peptide sequence: ITLEEYR, peptide start residue: 130) (UniProt Q96BS2)",0.139
6,"SYAP1 (peptide sequence: KITESVAETAQTIKK, peptide start residue: 71) (UniProt Q96A49)",-0.092
7,"MMAB (peptide sequence: RVVPLVQMGETDANVAK, peptide start residue: 195) (UniProt Q96EY8)",0.189
8,"TMCO6 (peptide sequence: LRPTVCGVEELRR, peptide start residue: 9) (UniProt Q96DC7)",-0.769
9,"LSM10 (peptide sequence: DESVAHGR, peptide start residue: 35) (UniProt Q969L4)",0.925
10,"FAF2 (peptide sequence: QQQDEAYLASLRADQEK, peptide start residue: 291) (UniProt Q96CS3)",-0.303
11,"NRGN (peptide sequence: GPGPGGPGGAGVAR, peptide start residue: 55) (UniProt Q92686)",0.434
12,"UniProt Q969U6 (peptide sequence: QILPHQMTTAGPVLGEGR, peptide start residue: 369)",0.306
13,"LRRC45 (peptide sequence: VSQLGLQVEGLRR, peptide start residue: 537) (UniProt Q96CN5)",0.192
14,"Sirt1 (peptide sequence: LLQECKK, peptide start residue: 249) (UniProt Q96EB6)",-0.168
15,"DTNBP1 (peptide sequence: ERLLSVQQDFTSGLK, peptide start residue: 7) (UniProt Q96EV8)",-0.752
16,"ANKS1A (peptide sequence: RVGYLTGLPTTNSR, peptide start residue: 565) (UniProt Q92625)",-0.497
17,"UniProt Q96EK5 (peptide sequence: AAHYCHSTLKR, peptide start residue: 227)",-0.684
18,"UniProt Q96E29 (peptide sequence: DYVDHSETLQK, peptide start residue: 148)",0.52
19,"HPS3 (peptide sequence: VHHHPHK, peptide start residue: 221) (UniProt Q969F9)",-0.21
